In this test the target is DR5 (human (endogenous in RA FLSs)) (UniProt O14763). Kind of test: co-IP; RIPA lysates of RA FLSs challenged with CoCl2 or Tm, with or without Lv-IL13Rα1; IP with anti-IL13Rα1 or anti-DR5 (1 μg) and Protein A Dynabeads, blot with anti-DR5 or anti-IL13Rα1.

The chains behind the UniProt entries cited, without tags or fusion partners. Residues count along the entry.
UniProt O14763, residues 56-440: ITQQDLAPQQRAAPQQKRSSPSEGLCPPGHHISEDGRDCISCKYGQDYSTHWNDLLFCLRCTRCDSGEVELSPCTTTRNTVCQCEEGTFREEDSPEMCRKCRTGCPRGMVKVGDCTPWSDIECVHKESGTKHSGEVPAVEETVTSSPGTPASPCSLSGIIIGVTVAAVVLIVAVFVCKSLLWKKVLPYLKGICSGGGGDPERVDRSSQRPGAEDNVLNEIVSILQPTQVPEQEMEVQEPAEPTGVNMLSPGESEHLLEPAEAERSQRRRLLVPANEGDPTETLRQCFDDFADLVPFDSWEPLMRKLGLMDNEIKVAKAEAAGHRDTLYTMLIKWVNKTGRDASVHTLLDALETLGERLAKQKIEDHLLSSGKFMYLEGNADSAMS

No constants are given. Whether binding was seen depends on the method and setting. In cells and extracts the contact can be indirect. Some entries that bind do so weakly or less than the wild type. Where a sequence is shown, tags or fusion partners need not be part of it.

B1: IL13Rα1 (receptor, UniProt P78552 22-427)
chain: GGGGAAPTETQPPVTNLSVSVENLCTVIWTWNPPEGASSNCSLWYFSHFGDKQDKKIAPETRRSIEVPLNERICLQVGSQCSTNESEKPSILVEKCISPPEGDPESAVTELQCIWHNLSYMKCSWLPGRNTSPDTNYTLYYWHRSLEKIHQCENIFREGQYFGCSFDLTKVKDSSFEQHSVQIMVKDNAGKIKPSFNIVPLTSRVKPDPPHIKNLSFHNDDLYVQWENPQNFISRCLFYEVEVNNSQTETHNVFYVQEAKCENPEFERNVENTSCFMVPGVLPDTLNTVRIRVKTNKLCYEDDKLWSNWSQEMSIGKKRNSTLYITMLLIVPVIVAGAIIVLLLYLKRLKIIIFPPIPDPGKIFKEMFGDQNDDTLHWKKYDIYEKQTKEETDSVVLIENLKKASQ
For the molecule B1, the binding result is recorded as “binds”.

B2: Myc-tagged-wild type human IL13Rα1 (receptor, UniProt P78552 22-427)
chain: B1 chain
As for B2, the binding entry is “binds”.

The record behind these values is paper PMC7414989.
